Results on one sequence are retold here after publication PMC5996148.

Some of the results follow. For some assays here: The exact form of the protein is not confirmed.

Some test systems named below: C6orf89 (human); C7orf13 (human); C7orf24 (human); C7orf36 (human); C7orf41 (human); C8G (human); C8orf43 (human); C8orf47 (human); C9orf148 (human); C9orf46 (human); C9orf71 (human); C9orf95 (human); CA2 (human); CACNG1 (human); CALB1 (human); CALM2 (human).
Holding throughout (assay): protein microarray (ProtoArray v5.0), streptavidin-Alexa Fluor 647
Common to all, as to conditions: 3'-biotin; 20 mM Tris (pH 7.5), 5 mM MgCl2, 100 mM KCl, 0.1% Tween-20, A/T-rich and random oligonucleotide blockers; temperature not stated; high values mean tight binding

Another assay addresses T1, C8orf59 (UniProt Q8N0T1).
T1 sequence: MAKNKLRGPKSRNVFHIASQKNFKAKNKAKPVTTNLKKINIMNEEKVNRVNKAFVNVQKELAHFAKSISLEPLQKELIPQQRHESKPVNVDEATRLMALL

The target in a further assay is CA9 (UniProt Q16790).
Another assay addresses CACYBP (UniProt Q9HB71).
A further assay addresses CALM3 (UniProt P0DP25).

Turning to “GGGGACAGGGGTATGGGGAGGGG [G4-3 biotinylated (CtG)]”, the binding signal with C6orf89 (human) was -0.331 z-score; in the assay on C7orf13 (human), -0.297 z-score; in the assay with C7orf24 (human), -0.314 z-score; in the assay with C7orf36 (human), -0.343 z-score; with C7orf41 (human), -0.342 z-score; in the assay on C8G (human) it was -0.312 z-score. The binding signal with C8orf43 (human) is -0.33 z-score; in the assay with C8orf47 (human), -0.333 z-score; in the assay with C8orf59 it was 3.45 z-score; in the assay with C9orf148 (human), -0.306 z-score; with C9orf46 (human), -0.309 z-score; with C9orf71 (human), -0.324 z-score. In addition, the binding signal with C9orf95 (human) is -0.329 z-score; in the assay on CA2 (human) it was -0.324 z-score; with CA9, -0.341 z-score; in the assay with CACNG1 (human) it was -0.313 z-score; in the assay with CACYBP, 3.85 z-score; in the assay with CALB1 (human) it was -0.326 z-score. Besides, the binding signal was -0.331 z-score with CALM2 (human) and -0.336 z-score with CALM3.
